Test results: patent US9024027B2, “Derivatives of 1-phenyl-2-pyridinyl alkyl alcohols as phosphodiesterase inhibitors” (Chiesi Farmaceutici S.p.A., priority 2011, dated 2015)
Some entries share one result that the patent states for a list of compounds.

Tested on: PDE4
Assay: In vitro determination of PDE4 inhibitory activity in the cell free assay (cAMP disappearance, U937 cell lysate supernatant)
Type: biochemical
Conditions: U937 human monocytic cell lysate supernatant, read-out: PDE4 inhibition (IC50, 50% inhibition of cAMP disappearance)

CS(=O)(=O)N(Cc1cccnc1)c1ccc2c(c1)oc(=O)n2CC(=O)O[C@@H](Cc1c(Cl)c[n+]([O-])cc1Cl)c1ccc(OC(F)F)c(OCC2CC2)c1 [Compound 237]
IC50: < 100 pM
